PMC3828145
These are yes or no findings as the source states them, for the method shown. Some binding calls cover weakened binding; strength is not graded here.

Chains of the proteins cited; added tags and fusions are not shown.
UniProt P53552: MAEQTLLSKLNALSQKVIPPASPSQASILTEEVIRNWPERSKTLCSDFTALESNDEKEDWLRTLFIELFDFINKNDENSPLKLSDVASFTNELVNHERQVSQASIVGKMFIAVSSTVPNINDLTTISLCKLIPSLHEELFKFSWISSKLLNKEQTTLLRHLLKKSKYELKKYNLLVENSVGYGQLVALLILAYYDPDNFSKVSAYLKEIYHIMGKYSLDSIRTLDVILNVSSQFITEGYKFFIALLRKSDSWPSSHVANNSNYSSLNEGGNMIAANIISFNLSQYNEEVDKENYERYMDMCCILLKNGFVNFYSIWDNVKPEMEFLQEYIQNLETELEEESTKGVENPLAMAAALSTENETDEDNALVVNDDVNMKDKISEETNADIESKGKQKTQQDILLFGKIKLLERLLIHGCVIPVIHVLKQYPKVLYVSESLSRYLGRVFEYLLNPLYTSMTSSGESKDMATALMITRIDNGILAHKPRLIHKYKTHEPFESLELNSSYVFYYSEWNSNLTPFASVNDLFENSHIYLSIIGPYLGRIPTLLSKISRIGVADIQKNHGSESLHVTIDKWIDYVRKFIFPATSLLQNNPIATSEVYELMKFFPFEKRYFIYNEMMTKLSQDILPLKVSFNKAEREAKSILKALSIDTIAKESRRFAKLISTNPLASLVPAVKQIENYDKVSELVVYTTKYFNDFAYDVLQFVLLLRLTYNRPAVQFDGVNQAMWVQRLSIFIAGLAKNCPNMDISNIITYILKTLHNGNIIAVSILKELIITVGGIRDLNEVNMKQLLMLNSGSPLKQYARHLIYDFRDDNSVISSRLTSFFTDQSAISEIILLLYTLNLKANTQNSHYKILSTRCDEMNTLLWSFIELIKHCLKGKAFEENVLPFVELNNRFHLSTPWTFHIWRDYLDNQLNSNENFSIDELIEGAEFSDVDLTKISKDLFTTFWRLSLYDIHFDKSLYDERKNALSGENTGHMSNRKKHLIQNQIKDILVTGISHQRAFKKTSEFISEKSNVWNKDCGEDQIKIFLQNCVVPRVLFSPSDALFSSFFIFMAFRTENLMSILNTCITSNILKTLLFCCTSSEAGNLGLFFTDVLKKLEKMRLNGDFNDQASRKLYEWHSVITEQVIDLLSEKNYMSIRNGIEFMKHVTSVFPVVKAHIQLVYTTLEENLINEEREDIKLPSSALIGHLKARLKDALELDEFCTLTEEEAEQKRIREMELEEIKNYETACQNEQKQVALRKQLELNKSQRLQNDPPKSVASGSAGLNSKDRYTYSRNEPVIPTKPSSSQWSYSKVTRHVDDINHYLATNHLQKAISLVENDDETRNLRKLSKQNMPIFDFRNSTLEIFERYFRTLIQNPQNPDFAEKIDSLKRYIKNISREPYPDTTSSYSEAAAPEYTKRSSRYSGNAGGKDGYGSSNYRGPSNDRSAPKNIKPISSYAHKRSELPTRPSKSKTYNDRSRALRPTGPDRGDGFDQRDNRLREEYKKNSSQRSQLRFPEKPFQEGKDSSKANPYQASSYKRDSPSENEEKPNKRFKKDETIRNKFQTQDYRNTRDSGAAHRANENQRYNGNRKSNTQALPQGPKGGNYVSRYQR

Legend:
[1] = molecular target: Tho2-TAP (C-terminally TAP-tagged Tho2) (S. cerevisiae) (UniProt P53552); experiment: tandem affinity purification; TAP-tagged bait purified from yeast lysate; lysate (input) and calmodulin eluate analysed by Coomassie stain and Western blot (anti-HA, anti-Yra1, anti-Sub2)
[2] = molecular target: TAP-Tho2 (N-terminally TAP-tagged Tho2) (S. cerevisiae) (UniProt P53552); experiment: as above

B1: Sub2 (protein, UniProt Q07478 1-446)
chain: MSHEGEEDLLEYSDNEQEIQIDASKAAEAGETGAATSATEGDNNNNTAAGDKKGSYVGIHSTGFKDFLLKPELSRAIIDCGFEHPSEVQQHTIPQSIHGTDVLCQAKSGLGKTAVFVLSTLQQLDPVPGEVAVVVICNARELAYQIRNEYLRFSKYMPDVKTAVFYGGTPISKDAELLKNKDTAPHIVVATPGRLKALVREKYIDLSHVKNFVIDECDKVLEELDMRRDVQEIFRATPRDKQVMMFSATLSQEIRPICRRFLQNPLEIFVDDEAKLTLHGLQQYYIKLEEREKNRKLAQLLDDLEFNQVIIFVKSTTRANELTKLLNASNFPAITVHGHMKQEERIARYKAFKDFEKRICVSTDVFGRGIDIERINLAINYDLTNEADQYLHRVGRAGRFGTKGLAISFVSSKEDEEVLAKIQERFDVKIAEFPEEGIDPSTYLNN
binding [1]: binds | binding [2]: binds
